Data as given in PubChem BioAssay AID686938 (Drosophila RNAi Screening Center, 2013).
Test: 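Knock-downs reducing store-operated calcium influx in Drosophila cells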 (primary screen). Cells: Drosophila S2R+ cells. Reagents: long dsRNA against Drosophila genes, about 0.25 µg dsRNA per well, roughly 10,000 cells. Timing: 5 days of knock-down before the calcium assay. Challenge: thapsigargin (SERCA pump blocker) to empty calcium stores; entry signal taken 4 min after adding it. Detection: 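Per-well fluo-4 fluorescence in two replicates, unnormalised, measured in resting cells and 4 min after store depletion by the SERCA blocker thapsigargin; ratio of the two present in few wells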. Scale: calcium entry signal: higher = stronger calcium signal after store depletion; entry to resting ratio: higher = more calcium entry relative to resting level; resting calcium signal: higher = higher resting calcium signal. Units: calcium entry signal in fluorescence units; resting calcium signal in fluorescence units. Call rule: 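Called when the plate z-score of the entry-to-rest ratio, mean of duplicates, falls below −3; wells with low overall dye signal (Fmax z below −2) or more than five off-targets excluded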. Calls: active = strongly reduced calcium entry; inactive = no strong reduction.
The deposit covers about 23,000 reagents; shown is a random part of those that have a named target and a result. Of all reagents, 75 (0.33%) are marked active. 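Raw plate signals without normalisation; calls rest on plate z-scores that were not deposited; ratio present for only 364 wells.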 Unmarked entries are inactive. No sequences are given here. Not given: the dose of the treatment.

Target gene | DRSC id | calcium entry signal, replicate 1 | calcium entry signal, replicate 2 | entry to resting ratio | resting calcium signal, replicate 1 | resting calcium signal, replicate 2
CG34049 | DRSC00104 | 1.77e7 | 2.44e7 | – | 1.01e7 | 1.02e7
FarO | DRSC18475 | 3.55e7 | 6.37e7 | 2.1 | 1.72e7 | 2.62e7
CG3610 | DRSC15502 | 3.40e7 | 4.68e7 | – | 1.72e7 | 7.23e7
aln | DRSC08240 | 1.88e7 | 2.74e7 | – | 1.06e7 | 1.27e7
CG34057 | DRSC08375 | 2.12e7 | 3.42e7 | – | 1.15e7 | 1.40e7
CG14421 | DRSC17918 | 3.79e7 | 4.12e7 | 2.3 | 1.65e7 | 1.63e7
CkIalpha | DRSC20231 | 2.61e7 | 3.95e7 | – | 1.20e7 | 1.88e7
CkIalpha | DRSC22609 | 2.33e7 | 2.04e7 | – | 1.36e7 | 9.71e6
CkIalpha | DRSC23308 | 3.08e7 | 2.12e7 | – | 1.54e7 | 9.97e6
Oatp58Db | DRSC04364 | 3.92e7 | 5.14e7 | – | 1.97e7 | 2.27e7
CG9933 | DRSC03276 | 5.62e7 | 3.68e7 | – | 2.45e7 | 1.70e7
BBS8 | DRSC00360 | 3.11e7 | 3.30e7 | – | 1.48e7 | 1.42e7
CG14974 | DRSC08433 | 3.00e7 | 4.32e7 | – | 1.53e7 | 1.94e7
Cchl | DRSC15949 | 3.45e7 | 3.30e7 | – | 1.67e7 | 1.53e7
Cpsf160 | DRSC05968 | 2.74e7 | 3.64e7 | – | 1.48e7 | 1.69e7
CG6845 | DRSC08576 | 4.95e7 | 4.51e7 | – | 2.28e7 | 1.96e7
CG31267 | DRSC15748 | 3.20e7 | 6.98e7 | – | 1.70e7 | 7.59e7
CG4653 | DRSC19909 | 2.34e7 | 4.37e7 | – | 1.15e7 | 2.04e7
CG4653 | DRSC22857 | 2.84e7 | 3.18e7 | – | 1.32e7 | 1.48e7
Gyc32E | DRSC01154 | 3.86e7 | 4.74e7 | – | 1.95e7 | 2.11e7
Cpr76Bd | DRSC11063 | 3.47e7 | 5.38e7 | – | 1.57e7 | 2.19e7
CG43102 | DRSC13261 | 5.13e7 | 2.97e7 | – | 2.28e7 | 1.41e7
CG43102 | DRSC14797 | 2.72e7 | 3.68e7 | – | 4.18e7 | 1.98e7
CG43102 | DRSC16239 | 1.89e7 | 2.68e7 | – | 2.94e7 | 1.16e7
CG31156 | DRSC15753 | 4.34e7 | 2.84e7 | – | 2.01e7 | 1.38e7
CG31156 | DRSC15755 | 4.06e7 | 3.32e7 | – | 1.85e7 | 1.37e7
Gr36c | DRSC02437 | 3.58e7 | 2.57e7 | – | 1.65e7 | 1.31e7
AIMP2 | DRSC09877 | 3.19e7 | 3.43e7 | – | 1.45e7 | 2.40e7
tsl | DRSC17090 | 3.25e7 | 4.09e7 | – | 4.28e7 | 1.87e7
CG42542 | DRSC15549 | 3.71e7 | 4.88e7 | – | 1.61e7 | 2.16e7
CG42542 | DRSC22264 | 2.72e7 | 4.21e7 | – | 1.37e7 | 1.90e7
CG5961 | DRSC15927 | 3.48e7 | 5.06e7 | – | 1.45e7 | 1.99e7
coil | DRSC07242 | 4.07e7 | 3.41e7 | – | 1.87e7 | 1.64e7
POSH | DRSC07499 | 4.66e7 | 5.63e7 | – | 2.16e7 | 2.55e7
Amph | DRSC07578 | 3.86e7 | 4.06e7 | – | 1.70e7 | 2.03e7
CG2972 | DRSC18250 | 2.87e7 | 2.97e7 | – | 1.51e7 | 1.55e7
Kr-h2 | DRSC03356 | 3.51e7 | 3.41e7 | – | 1.86e7 | 1.61e7
CG6034 | DRSC10572 | 4.04e7 | 4.45e7 | – | 1.94e7 | 1.74e7
CG15279 | DRSC01935 | 4.43e7 | – | – | 2.02e7 | –
CG4678 | DRSC19911 | 3.59e7 | 2.96e7 | – | 1.86e7 | 1.33e7
CG4678 | DRSC19912 | 3.88e7 | 3.01e7 | – | 1.95e7 | 1.46e7
laza | DRSC11661 | 3.05e7 | 4.56e7 | – | 1.55e7 | 3.29e7
laza | DRSC23330 | 3.41e7 | 3.65e7 | – | 1.81e7 | 1.62e7
CG5768 | DRSC15870 | 4.15e7 | 2.63e7 | – | 1.76e7 | 1.37e7
phyl | DRSC07663 | 2.35e7 | 3.21e7 | – | 1.30e7 | 1.40e7
Osi15 | DRSC12178 | 3.36e7 | 1.61e7 | – | 1.56e7 | 8.48e6
CG11333 | DRSC14301 | 3.55e7 | 4.01e7 | 2.2 | 1.59e7 | 1.61e7
Sf3b5 | DRSC14460 | 1.75e7 | 2.67e7 | – | 1.19e7 | 1.73e7
CG12849 | DRSC04129 | 3.68e7 | 5.02e7 | – | 1.96e7 | 2.14e7
CG7755 | DRSC07040 | 5.38e7 | 5.38e7 | – | 2.11e7 | 2.52e7
CG14573 | DRSC11734 | 3.49e7 | 5.24e7 | – | 1.61e7 | 2.19e7
CG13689 | DRSC00358 | 3.28e7 | 4.28e7 | – | 1.51e7 | 1.79e7
bel | DRSC16555 | 3.41e7 (active) | 4.25e7 | – | 2.10e7 | 2.85e7
Cyp28d2 | DRSC03299 | 3.63e7 | 3.70e7 | – | 1.81e7 | 1.84e7
gudu | DRSC02820 | 3.56e7 | 4.38e7 | – | 1.83e7 | 2.12e7
CG17129 | DRSC08508 | 4.39e7 | 3.87e7 | – | 2.19e7 | 1.85e7
CG7856 | DRSC04896 | 4.48e7 | 4.53e7 | – | 2.27e7 | 2.19e7
mRpL23 | DRSC08307 | 4.09e7 | 4.18e7 | – | 1.90e7 | 1.78e7
Xxylt | DRSC04107 | 4.21e7 | – | – | 2.13e7 | –
arg | DRSC18737 | 5.00e7 | 5.90e7 | – | 2.30e7 | 2.57e7
Atg9 | DRSC06848 | 3.11e7 | 3.36e7 | – | 1.47e7 | 1.67e7
CG33477 | DRSC22934 | 5.66e7 | 3.94e7 | – | 2.48e7 | 1.57e7
CG5116 | DRSC15720 | 3.00e7 | 2.49e7 | – | 1.33e7 | 1.23e7
Bcat | DRSC19756 | 3.91e7 | 4.34e7 | – | 1.90e7 | 2.03e7
Piezo | DRSC03092 | 4.53e7 | – | – | 2.57e7 | –
Piezo | DRSC03391 | 3.33e7 | 4.61e7 | – | 1.55e7 | 1.87e7
sqd | DRSC15160 | 4.83e7 | 7.07e7 | – | 2.14e7 | 7.60e7
sqd | DRSC17066 | 3.37e7 | 1.78e7 | – | 1.55e7 | 9.01e6
sqd | DRSC22954 | 2.72e7 | 2.47e7 | – | 1.37e7 | 1.11e7
DJ-1alpha | DRSC07005 | 3.49e7 | 3.37e7 | – | 1.90e7 | 1.56e7
CG15482 | DRSC02492 | 5.67e7 | 3.63e7 | – | 2.47e7 | 1.69e7
Zaf1 | DRSC16121 | 4.25e7 | 4.02e7 | – | 2.18e7 | 2.00e7
CycB3 | DRSC16618 | 3.64e7 | 5.53e7 | – | 1.79e7 | 2.27e7
CG13950 | DRSC00368 | 2.79e7 | 2.75e7 | – | 1.40e7 | 1.31e7
Ahcy | DRSC19329 | 2.32e7 | 2.68e7 | – | 1.25e7 | 1.38e7
